Results on 17 molecules are retold here after PubChem BioAssay AID493014 (National Center for Advancing Translational Sciences (NCATS), 2011).

The other results are listed elsewhere or left out. These are further read-outs of the screen, such as a control signal, another cell line or another target. No call is given for them. Most of these compounds were active or inconclusive in the main read-out, so they are no random draw. The note in brackets gives the kind of curve behind each potency; many fits are weak.

This assay can be described thus: qHTS Assay to Find Inhibitors of Chronic Active B-Cell Receptor Signaling. As to conditions: ABC-DLBCL IkBa-CBG/CBR reporter, luminescence ratio (green luciferase fused to IkBa over red control in TMD8 lymphoma cells), 4 h. Put shortly: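 Concentration-response series (up to 46 uM) were applied to TMD8 dual-reporter cells for 4 h at 37C with doxycycline. Green/red ratio, after filter-overlap correction, defined %Activity; red signal alone was normalised to basal cells and zero luminescence.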
In general terms: Quantitative high-throughput screening tests each substance at several concentrations.

The mark [1] stands for this setting: measured here: CBR red luminescence, cell number.
[2] abbreviates: measured here: IkBa-CBG green luminescence.

Usually AC50 stands for the midpoint of the concentration-response curve, whichever way the signal moves. `CCn1nc(C)c(CNCc2cn[nH]c2-c2cc3ccccc3o2)c1C`: the AC50 under setting [1] was 35.5 µM [rising, single point].

Regarding `CCOC(=O)N1CCC(NC(=O)c2cc(-c3ccc(F)cc3)[nH]c2C)CC1`, the AC50 under setting [1] was 5.62 µM [falling, single point]. The same measure, in the same setting: the figure for `COCCOC(=O)c1[nH]c2c(c1C)C(=O)CC(c1ccco1)C2` (centres undefined) is 16.4 µM [rising, partial curve, poor fit]; for `Cc1cc(C)n(-c2nc(C)c(C)c(=O)n2CC(=O)Nc2ccc(OC(F)(F)F)cc2)n1` it is 14.1 µM [rising, partial curve, poor fit]. `CCc1noc(C)c1C(=O)N1CCCC1`: under setting [1], the AC50 was 5.17 µM [falling, single point]. Same read-out and setting: the value for `C/C(CC(=O)Nc1ccc(N(C)C)cc1)=N\NC(=O)c1ccc(Cl)cc1Cl` was 0.1 µM [rising, full curve, poor fit]. The same measure, in the same setting: the value for `COc1ccc(CN2CCC(C(=O)NCCc3ccc(OC)c(OC)c3)CC2)c(OC)c1` was 20.6 µM [falling, partial curve, poor fit].

On to `Cc1cc(C)c(NC(=S)N(CCc2ccncc2)C(C)C)c(C)c1`, for which, under setting [1], the concentration at half-maximal activity (AC50) is 0.562 µM [falling, full curve, poor fit].

Turning to `O=C(NCCCN1CCOCC1)c1ccc(Cl)s1`, the concentration at half-maximal activity (AC50) reads like this: under setting [1], 29.1 µM [falling, single point]; under setting [2], 18.4 µM [rising, partial curve, poor fit].

In the case of `Cc1ccc(/C=N/NC(=O)Cc2cccn2C)cc1`, the AC50 under setting [1] is 5.62 µM [falling, partial curve, poor fit]. The same measure, in the same setting: the value for `COC(=O)c1cc(C(=O)OC)cc(N2C(=O)CC(NNC(=O)c3ccccc3Cl)C2=O)c1` (centres undefined) was 7.31 µM [falling, partial curve, poor fit]; that for `Cc1c(C(=O)OCC(=O)c2c(N)n(CC(C)C)c(=O)n(C)c2=O)oc2ccccc12` was 2.31 µM [rising, partial curve].

For `COc1ccccc1N(CC(=O)Nc1ccccc1C(=O)N1CCCC1)S(C)(=O)=O`, under setting [1], the AC50 is 12.6 µM [rising, partial curve, poor fit]. Consider `Cc1ccc(-n2c(C(C)C)nc3oc4ccccc4c(=O)c3c2=O)cc1`, for which, under setting [1], the AC50 was 0.1 µM [falling, full curve, poor fit]. For `Cc1cccc(NC(=O)c2c(O)c3ccccc3[nH]c2=O)c1`, the half-maximal activity concentration (AC50) under setting [1] was 0.0891 µM [rising, full curve, poor fit]. Still for that read-out and setting: the figure for `CCOc1ccc(S(=O)(=O)NNC(=S)Nc2ccc(Br)cc2)cc1` is 0.103 µM [rising, full curve, poor fit]. With `Cc1cc(C)cc(C(=O)N2CC(=O)Nc3ccccc32)c1`, the AC50 under setting [1] was 1.84 µM [rising, full curve] and the AC50 under setting [2] is 2.31 µM [falling, full curve].
